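Viability assay of Plasmodium falciparum sporozoites; the read-out is not stated. The concentration is filed as 10 mM, unlikely as a test dose, so the dose is not known. Direction is inferred from retests: higher values go with lower viability. Strong results were mostly tested again. Size under these conditions: about 34,000 compounds, about 280 of them at 50% or above in at least one test.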

Results are given as percent effect. The record does not define 0% and 100%; most values in the screen are far below 50% and negative numbers occur (in some assays of this library far below -100). This is an unselected part of the compounds tested. Two or more numbers in one place are separate tests of the same structure; such repeats can differ widely.

SMILES | effect
O=C1CN(Cc2nnc(-c3ccccc3Br)o2)CCN1 | -7.615
Cc1nc(C)n(C2CCCN(C(=O)c3cn4cccnc4n3)C2)n1 (stereo not drawn) | 5.089
O=C(COc1cccc(Br)c1)N1CCN(c2nccs2)CC1 | -6.009
[H][C@]12CC[C@]([H])(CN(C(=O)C3CCC3)C1)N(Cc1cnc(NCC)nc1)C2 | 2.842
Cc1cnn(CCNCc2c(C(C)C)nn(C)c2Cl)c1 | -5.882
Cc1cccc(N2CCOC(C(=O)O)C2)c1 (stereo not drawn) | -2.898
O=C(O)[C@@H]1CN(C(=O)CCN2CCCCC2)C[C@H]1c1ccccc1 | 3.837
CC1(C)OC(=O)N(CCCOc2ccc(F)cc2)C1=O | -6.267
O=C(NCCc1nnc2n1CCC2)NCC1(c2ccccc2F)CC1 | -11.55
CCOC(=O)N1CCC(Oc2ccc(C(F)(F)F)cn2)CC1 | -1.164
COC(=O)C(NC(=O)c1ccc(N(C)C)nc1)c1ccccc1 (stereo not drawn) | -0.3293
Cc1nc(CCC(=O)NCC(N)=O)cc(C2CCNCC2)n1 | 7.262
COc1ccccc1C1Cn2c(C)cnc2CN1Cc1c[nH]nc1C (stereo not drawn) | 2.997
Cc1[nH]c2c(F)cccc2c1CC(=O)NCc1csc(N(C)C)n1 | 5.175
CC(=O)N[C@@H]1C[C@H](c2ccc(OCCO)cc2)OC2(CCOCC2)C1 | 3.895
Cc1cc(C)n(CC2CCCN2C(=O)c2ccc3ccccc3n2)n1 (stereo not drawn) | 3.015
CC(=O)N1CC(=O)N(c2cnn(C)c2)CC12CCN(CC1CC1)C2.O=C(O)C(F)(F)F (stereo not drawn) | -11.27
Cc1[nH]nc(CCC(=O)N2CCc3ncnc(NCCO)c3CC2)c1C | -12.71
CS(=O)(=O)c1ccc(NC(=O)N2CCc3sccc3C2)cn1 | 4.059 & -14.43 & -15.92
CCOCC1CN(CC2CC2)Cc2nn(C)cc21.O=C(O)C(F)(F)F (stereo not drawn) | -10.11
CCCn1cc(C(=O)N2CCCC2(C)c2nc(C)cc(C)n2)cn1 (stereo not drawn) | 0.6869
O=C(NCCC1=CCCCC1)c1n[nH]c2c1CCCC2 | 24.8
CCc1ccc(C(=O)N2CCCC(CNS(C)(=O)=O)C2)o1 (stereo not drawn) | -1.288
O=C(NCCSCc1ccc(Br)s1)C1CCCN(c2cnccn2)C1 (stereo not drawn) | 0.8881
O=C(c1ccc(-n2cccn2)nc1)N1CCCC(c2cnccn2)C1 (stereo not drawn) | 16.67
CO[C@@H]1CN(c2ccccc2)S(=O)(=O)[C@@]12CCN(C(C)=O)C2 | -39.24
CC(C)c1nc2c(n1C)CCN(CC(=O)Nc1cccnc1)C2 | 11.87
CCCN(Cc1ccc(S(=O)(=O)NC)cc1)Cc1ccccc1OC | -17.42
O=C(O)C(F)(F)F.O=C(c1cccnc1)N1CCCC2(CCN(c3ccsc3)C2=O)C1 (stereo not drawn) | 7.039
CC(C)(C)C(=O)Cn1nc(-c2ccccc2F)ccc1=O | -13.82
CCc1nc(CC(=O)N2CCN(c3cnccn3)CC2)cs1 | -23.39
CCN(C(=O)CN1CCCN(c2nc(C)ns2)CC1)C1CC1 | -16.52
CC1CN(CCc2ccccn2)CCN1c1ccc2nncn2n1 (stereo not drawn) | 5.285
NC(=O)CN1CCC(c2cncc(-c3cccc(Cl)c3)n2)CC1 | 5.327
O=C(CCc1ccccc1F)NS(=O)(=O)c1ccc2c(c1)OCCO2 | 4.105
Cc1ccc2c(n1)N(CCN(C)C)CCN(C(=O)c1ccc[nH]1)C2.O=C(O)C(F)(F)F.O=C(O)C(F)(F)F | 1.499
N#Cc1ccc(C(=O)N2CCn3cc(CN4CCCCC4)nc3C2)cc1 | -4.897
[H][C@@]12CCCN1C[C@H](CCSC)N(Cc1cnn(CCC)c1C)C2 | -15.76
CC(=O)N1CCCC1c1nc(C)c2c(n1)N(Cc1ccccn1)CCC2 (stereo not drawn) | -5.554
O=C(c1cc2c(s1)CCCC2)N1CCCC1Cn1cccn1 (stereo not drawn) | -3.971
CN(C)CC(=O)N1Cc2nc(C(=O)NCc3ccncc3)oc2C1 | -0.5411
CCc1ccc(CN2CCCCC2c2n[nH]cc2-c2cc(C)no2)cc1.Cl (stereo not drawn) | 63.83 & 48.62 & 58.14
CC(C)OCCN(Cc1cccc(O)c1)C1CCC(O)CC1 (stereo not drawn) | 5.536
Cc1ccnn1CCC(=O)N1CCC(c2cnccn2)CC1 | -1.467
Cc1cc(C(=O)NCc2ccnc(N3CCN(C)CC3)c2)sc1C | 12.14
O=C(NCC(O)c1ccc(F)cc1F)c1cccc(F)c1 (stereo not drawn) | -9.592
[H][C@@]12CCN(C)[C@@]1([H])CCN2Cc1ccc2c(c1)OCO2 | 21.73
CC(C)(C)c1cc(CN2CCOC(CCc3ccccc3)C2)n[nH]1 (stereo not drawn) | 3.047
Cn1c(CN2CCOC(CNc3cccnn3)C2)nnc1C1CC1 (stereo not drawn) | 9.103
COC1CCN(C(=O)c2cc(-c3ccc(Cl)cc3)on2)CC1 | -16.72
Cn1cc(N2CCC3(CCN(Cc4cccnc4)C3)C2=O)cn1.O=C(O)C(F)(F)F.O=C(O)C(F)(F)F (stereo not drawn) | -2.514
CS(=O)(=O)N1CCOC(CNC(=O)c2cccc(C#N)c2)C1 (stereo not drawn) | 4.491
CN(C)Cc1cnc(C2CCN(C(=O)c3cccc(F)c3)C2)[nH]1 (stereo not drawn) | 7.536
Cc1cccc(-c2nc(CN3CCc4cnc(C)nc4C3)no2)c1 | -3.925
CC(C)c1nnc(CCC(=O)N2CCCC(c3cnccn3)C2)o1 (stereo not drawn) | 4.198
N#CCCN1CC(O)CN(C(=O)c2cccc(C(F)(F)F)c2)CC1=O (stereo not drawn) | -28.61
O=C(NC1CC1)C1(Cc2ccccc2-c2ccncc2)CCOCC1 | -3.895
COCC(=O)N1CC[C@@H](N2CCN(C)CC2)[C@@H]1Cc1ccccc1 | 2.19
COc1ccc(C(=O)N2CCCC(n3cc(C)cn3)C2)c(F)c1 (stereo not drawn) | -0.4601
CC(C)n1ccnc1C1CCCN(c2ccccn2)C1 (stereo not drawn) | -7.511
Cl.O=C(N1CCOCC1)N1CCCC2(CCCNC2)C1 (stereo not drawn) | 2.224
O=C(NCc1ccoc1)NC1CCCN(c2ncccn2)C1 (stereo not drawn) | -6.201
Clc1ccccc1-c1nnc(CN2CCCC2Cn2cncn2)o1 (stereo not drawn) | 11.42
CN(C)C(=O)CC1CC2(CCN(CC3CC3)CC2)Oc2ccccc21.O=C(O)C(F)(F)F (stereo not drawn) | -2.364
CCCC(=O)N1CCC2(CC1)CN(Cc1cccc(C)n1)C(=O)CO2 | -13.21 & 22.72 & -26.26
CC(C)C(NC(=O)c1ccc(Cl)cc1Cl)C(=O)Nc1cnn(C)c1 (stereo not drawn) | 9.232
O=C(CCCc1ccccn1)N1CCC(Nc2cccnn2)CC1 | -34.71 & -45.45 & -10.92
COc1ccc(-c2nnc(SC(C)C(N)=O)[nH]2)c(OC)c1 (stereo not drawn) | -14.46
O=C(O)C(F)(F)F.c1cc(CN2CCc3c(nnn3CC3CC3)C2COCC2CC2)co1 (stereo not drawn) | -6.083
O=C(O)C(F)(F)F.O=C(O)C(F)(F)F.[H][C@@]12CCCO[C@]1([H])[C@H](Nc1ccccn1)CN(Cc1c(C)noc1C)C2 | 9.737
O=C(O)C(F)(F)F.c1cnc(N2CCC3(COCc4cnc(-c5cccnc5)nc43)C2)nc1 (stereo not drawn) | 0.9143
CN1CCN(Cc2cnc3n2CCN(C(=O)c2ccncc2)C3)CC1 | -2.02
CCc1noc(C)c1C(=O)N1CCCC1c1c(C)nn(C)c1C (stereo not drawn) | 4.699
Cc1ccc(S(=O)(=O)N2CSCC2C(=O)N(C)C2CC2)cc1Cl (stereo not drawn) | 0.4614
COCc1ccccc1CNCc1c(C(C)C)nn(C)c1N(C)C | 6.791
COc1ccc2c(ccn2CCC(=O)Nc2n[nH]c(CC(C)C)n2)c1 | -1.923
CCn1c(C2CCCN(C(=O)c3ccc[nH]3)C2)nn(CCN(C)C)c1=O (stereo not drawn) | 3.07
CCCC(=O)NCc1cc(Br)c(OC)c(OC)c1 | -10.52
O=C(NCCc1ccccc1)N1CCCCC1C1OCCO1 (stereo not drawn) | -48 & -64.36
CC1CCN(CCCNS(=O)(=O)Cc2ccccc2F)CC1 | -8.639
CC1=Nc2c(c(=O)[nH]n2C2CCCCC2)C(c2ccc(C(=O)O)cc2)S1 (stereo not drawn) | -4.304
O=C(CCOc1ccccc1F)N1CCC(O)CC1 | -2.056 & -15.58 & -4.248
CCc1ccc(C(=O)N2CCC(Nc3ccc(C)nn3)CC2)o1 | 3.483
Cc1ccc(C(=O)NC2CCOc3ccccc32)cc1S(C)(=O)=O (stereo not drawn) | 24.08
O=C(NCCN1CCOCC1)NCc1ncc(-c2ccccc2)o1 | 0.2146
O=C(O)C(F)(F)F.[H][C@@]12CCN(C(C)=O)C[C@]1(C(=O)NCCc1ccccn1)CCO2 | -10.77
COc1cnc(C2(O)CCN(C(=O)c3scnc3C)CC2)c(OC)n1 | 11.88
CCn1ccnc1CN1CCN(CCOc2cccc(C#N)c2)CC1 | -1.814
CC(=O)c1ccc(F)cc1-c1cc(NCCO)nc2[nH]ccc12 | -1.754
COCCn1ccnc1C1CCCN(C(=O)CSCC2CC2)C1 (stereo not drawn) | -1.344
CN(CC1(O)CCCN(c2ccccn2)C1)C(=O)CCc1cccs1 (stereo not drawn) | 2.681
Cn1c(C2CC2)nc2c1CCN(CC(=O)Nc1nncs1)C2 | -11.5 & -10.93 & -9.975

6 of the entries, repeated:

SMILES,effect
CC(C)OCCN(Cc1cccc(O)c1)C1CCC(O)CC1 (stereo not drawn),5.536
Cc1[nH]nc(CCC(=O)N2CCc3ncnc(NCCO)c3CC2)c1C,-12.71
CCc1ccc(C(=O)N2CCCC(CNS(C)(=O)=O)C2)o1 (stereo not drawn),-1.288
O=C(COc1cccc(Br)c1)N1CCN(c2nccs2)CC1,-6.009
Cc1ccnn1CCC(=O)N1CCC(c2cnccn2)CC1,-1.467
CC1CN(CCc2ccccn2)CCN1c1ccc2nncn2n1 (stereo not drawn),5.285

From ChEMBL document CHEMBL3988442, “University of Dundee, Small-Polar-MMV Screening Library” (2021).